Record: PubChem BioAssay AID1259405 (NCATS, 2018)
This is a random part of about 50,000 reagents tested. Over the whole deposit, about 4,000 (8%) got an active call. 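Mouse siRNA library applied to hamster cells; one well for each siRNA.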 A number with no mark means an inactive call. Reagents against one gene are numbered here. No sequences are given here.

- Aim: 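Silenced genes that increase secreted GFP made by CHO cells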 (primary screen)
- Cell system: Chinese hamster CHO-K1 ovary cells with stable secreted eGFP expression
- Knock-down reagent: single siRNA against mouse genes, 0.8 pmol siRNA per well (2 µl of 400 nM stock)
- Time to read-out: 3 days
- Measured: 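Per-well intracellular GFP measured by laser scanning cytometry, plus viability from ATP luminescence, each relative to plate median of non-targeting control wells, in %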
- Reading the numbers: GFP, % of control: higher = more GFP per well, higher productivity; viability (ATP), % of control: higher = more viable cells (more ATP)
- Call rule: 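a knock-down is called active if GFP reaches 120% or more of non-targeting control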

no.	Gene	reagent no.	GFP, % of control	viability (ATP), % of control
1	Prom1 (prominin 1)	1	55.1	48.8
2	Prom1 (prominin 1)	2	102	93.1
3	Prom1 (prominin 1)	3	80.4	75.6
4	Mrpl3 (mitochondrial ribosomal protein L3)	1	90.1	66.5
5	Mrpl3 (mitochondrial ribosomal protein L3)	2	132 (active)	89.2
6	Mrpl3 (mitochondrial ribosomal protein L3)	3	131 (active)	66.9
7	Ndufb10 (NADH:ubiquinone oxidoreductase subunit B10)	1	102	83.2
8	Ndufb10 (NADH:ubiquinone oxidoreductase subunit B10)	2	91.9	76.8
9	Defb38 (defensin beta 38)	1	50.8	78.7
10	Defb38 (defensin beta 38)	2	46.1	29
11	Defb38 (defensin beta 38)	3	91.1	73.6
12	Flacc1 (flagellum associated containing coiled-coil domains 1)	1	138 (active)	113
13	Flacc1 (flagellum associated containing coiled-coil domains 1)	2	111	78.2
14	Flacc1 (flagellum associated containing coiled-coil domains 1)	3	127 (active)	134
15	Or9k7 (olfactory receptor family 9 subfamily K member 7)	1	68	37.9
16	Or9k7 (olfactory receptor family 9 subfamily K member 7)	2	113	107
17	Or9k7 (olfactory receptor family 9 subfamily K member 7)	3	21.8	33.1
18	Cttn (cortactin)	1	46.3	40.2
19	Cttn (cortactin)	2	69.2	74.2
20	Cttn (cortactin)	3	79.1	54.4
21	Acot4 (acyl-CoA thioesterase 4)	1	84.6	81
22	Acot4 (acyl-CoA thioesterase 4)	2	83.3	69.7
23	Btc (betacellulin, epidermal growth factor family member)	1	39.7	41.3
24	Btc (betacellulin, epidermal growth factor family member)	2	56.1	64.4
25	Btc (betacellulin, epidermal growth factor family member)	3	29.4	26.4
26	Cep95 (centrosomal protein 95)	1	128 (active)	86.9
27	Cep95 (centrosomal protein 95)	2	57.4	51.9
28	Cep95 (centrosomal protein 95)	3	62.2	86.6
29	Ap1m2 (adaptor protein complex AP-1, mu 2 subunit)	1	67.2	74.4
30	Ap1m2 (adaptor protein complex AP-1, mu 2 subunit)	2	97.9	69
31	Ap1m2 (adaptor protein complex AP-1, mu 2 subunit)	3	86.2	48.5

Limited to “viability (ATP), % of control” (3 entries from above):
Flacc1 (flagellum associated containing coiled-coil domains 1) #1	113 (active)
Flacc1 (flagellum associated containing coiled-coil domains 1) #2	78.2
Flacc1 (flagellum associated containing coiled-coil domains 1) #3	134 (active)

Next records follow.
no.	Gene	reagent no.	GFP, % of control	viability (ATP), % of control
32	Slfn1 (schlafen 1)	1	96.4	70.3
33	Slfn1 (schlafen 1)	2	88.8	66.1
34	Slfn1 (schlafen 1)	3	55.3	55.4
35	Lrrn3 (leucine rich repeat protein 3, neuronal)	1	119	78.7
36	Lrrn3 (leucine rich repeat protein 3, neuronal)	2	98.7	97.9
37	Lrrn3 (leucine rich repeat protein 3, neuronal)	3	98.6	71.2
38	C8g (complement component 8, gamma polypeptide)	1	99.3	79.3
39	C8g (complement component 8, gamma polypeptide)	2	98	84.6
40	Phex (phosphate regulating endopeptidase homolog, X-linked)	1	110	90.7
41	Phex (phosphate regulating endopeptidase homolog, X-linked)	2	64.1	65.1
42	Phex (phosphate regulating endopeptidase homolog, X-linked)	3	51.5	57.3
43	Creb3l3 (cAMP responsive element binding protein 3-like 3)	1	49.2	43.2
44	Creb3l3 (cAMP responsive element binding protein 3-like 3)	2	60.9	57
45	Creb3l3 (cAMP responsive element binding protein 3-like 3)	3	98.2	97.1
46	H2ac6 (H2A clustered histone 6)	1	115	64.6
47	H2ac6 (H2A clustered histone 6)	2	91.7	90
48	H2ac6 (H2A clustered histone 6)	3	85.3	108
49	Lrsam1 (leucine rich repeat and sterile alpha motif containing 1)	1	48.7	61.1
50	Lrsam1 (leucine rich repeat and sterile alpha motif containing 1)	2	58.4	58.7
51	Lrsam1 (leucine rich repeat and sterile alpha motif containing 1)	3	82.5	79.8
52	Msln (mesothelin)	1	129 (active)	115
53	Msln (mesothelin)	2	90.3	85.7
54	Cs (citrate synthase)	1	59.5	67.8
55	Cs (citrate synthase)	2	54.6	74.2
56	Cs (citrate synthase)	3	104	81.7
57	Usp9y (ubiquitin specific peptidase 9, Y chromosome)	1	83.1	90.6
58	Usp9y (ubiquitin specific peptidase 9, Y chromosome)	2	47.9	43
59	Usp9y (ubiquitin specific peptidase 9, Y chromosome)	3	62.9	55.8
